# Laboratory results: patent publication US20250306008A1, “PHARMACEUTICAL COMPOSITION FOR TREATING OR PREVENTING MALIGNANT BREAST CANCER” (KOREA ADVANCED INSTITUTE OF SCIENCE AND TECHNOLOGY, priority 2021, published 2025)
# At least one compound was matched to its structure with a doubt left.
# Columns and labels:
# BT20 cells = experiment: Tamoxifen drug response (Incucyte confluency) after BCL11A and HDAC1/2 inhibition; assay type: cell-based; details: tamoxifen 10 uM, monitored 72 hours
# Protocol: (§1) Briefly, it is as follows: Cells were plated in 1×10^4 cells (3 repetitions for each condition; triplicate), after 24 hours, the cells were treated with the tamoxifen drug (10 uM) and monitored by taking pictures at 3-hour intervals using Incucyte for 72 hours. After that, the confluency of the cells in the pictures was calculated and the sensitivity of the cells to various drugs was graphed.
# MDA-MB231 cells = experiment: as above; assay type: cell-based; details: tamoxifen 10 uM, monitored 72 hours
# Protocol: as §1
structure (smiles),measurement,setting,value
C/C=C1\NC(=O)[C@H]2CSSCC/C=C/[C@H](CC(=O)N[C@H](C(C)C)C(=O)N2)OC(=O)[C@H](C(C)C)NC1=O [romidepsin],sensitivity of treated cells to Tamoxifen (cell confluency),BT20 cells,some sensitivity
same,sensitivity of treated cells to Tamoxifen (cell confluency),MDA-MB231 cells,some sensitivity
